# Source: PubChem BioAssay AID1347076 (National Center for Advancing Translational Sciences (NCATS), 2019)
# The whole screen tested about 400,000 compounds, of which about 13,000 (3.2%) were called active. Inconclusive means that the source gave no clear call. Such entries were picked first, then a sample of the others. The call rests on the fitted dose curve; in most records, active means well fitted cell-killing curve with a large enough effect; inconclusive means small, poorly fitted or top-dose-only effect, or effect the other way; inactive means flat fitted curve, though single readings scatter. Potencies of inconclusive entries are doubtful fits and often do not repeat.
# Experiment: qHTS assay for MDR1-selective chemotherapeutics: Primary screen using the drug-selected MDR subline cells KB-V1; further: nearly all actives have a fitted effect of over 60% in size
# Conditions: KB-V1 MDR cells viability, CellTiter-Glo, 72 h; activity change, negative = cytotoxicity: at 46.1 µM (top of the series)
# Summary of the method: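 Potencies derive from concentration-effect curves fitted to normalized luminescence (CellTiter-Glo) of KB-V1 cells treated for 72 h at 37 degrees C in phenol-red-free DMEM containing 10% FBS.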
# On the % scale 0 is the no-effect control and ±100 the full control effect; potency means the concentration at half of the fitted maximal effect.
Structure (SMILES),Potency,"activity change, negative = cytotoxicity"
CCCCN1CNC(=S)N(c2ccc(C(=O)OCC)cc2)C1,"inconclusive: 23.1 µM [rising, partial curve, poor fit]",
O=C(CSc1nc2ccccc2[nH]1)Nc1nc(-c2ccccc2)c(-c2ccccc2)o1,"inconclusive: 29.1 µM [cytotoxic, partial curve, poor fit]",
Cc1ccc(NC(=O)c2cc(=O)c3ccccc3o2)cc1S(=O)(=O)N1CCCCC1,active: 9.2 µM,
Cc1ccc(-n2nc(C)c(C3(O)C(=O)N(C(C)C)c4ccccc43)c2N)cc1 (configuration not stated),inactive,
COc1cc(SC)ccc1C(=O)Nc1ccc(OCC(=O)N2CCOCC2)cc1,"inconclusive: 4.11 µM [cytotoxic, partial curve]",
Cc1ncc(CN2CCCC(C(=O)Nc3ccc(-c4cccc(F)c4)cc3)C2)n1C (configuration not stated),"inconclusive: 20.6 µM [cytotoxic, single point]",
CCOc1cc(/C=N/Nc2nc(-c3cccc(S(=O)(=O)N4CCCC4)c3)cs2)ccc1O,active: 13 µM,
COc1ccc(Cc2nc3ccc(C(=O)N4CCN(C)C(C)C4)cc3o2)cc1OC (configuration not stated),,inconclusive: -21.3%
CN(C)CCNCCCNc1c2ccccc2nc2cccc([N+](=O)[O-])c12,inactive,
CCCc1cc(=O)n2c([nH]c3ccccc32)c1C#N,"inconclusive: 20.6 µM [cytotoxic, single point]",
CN(C)c1ccc(S(=O)(=O)N2CCCCC2)cc1NC(=O)CCNC(=O)c1ccco1,inactive,
CC1CCCCC1NC(=O)CO/N=C/c1ccccc1OC(F)F (configuration not stated),"inconclusive: 23.1 µM [cytotoxic, partial curve, poor fit]",
O=C(C[N+]1(CC(O)c2ccccc2)CCOCC1)c1ccccc1 (configuration not stated),inactive,
CC(C)NS(=O)(=O)c1ccc(CCC(=O)Nc2cc(Cl)ccc2Oc2ccccc2)cc1,inactive,
CC(C)c1ccccc1OCCNC(=S)NC(=O)c1cccnc1,"inconclusive: 20.6 µM [cytotoxic, single point]",
Cc1ccc(NC2CCCCC2NS(=O)(=O)c2ccccc2)c(C)c1 (configuration not stated),inactive,
Cc1c(NC(=O)COc2cccc(Cl)c2Cl)c(=O)n(-c2ccccc2)n1C,inactive,
CCC(=O)NCCCCCCNC(=O)CC,inactive,
CN1C(=O)C2(OCC(COc3ccc(Cl)cc3)O2)c2ccccc21 (configuration not stated),"inconclusive: 18.4 µM [cytotoxic, single point]",
COC(=O)c1cn(C(=O)c2ccc(C)cc2)c2ccccc12,inactive,
COc1ccc(NC(=O)COC(=O)c2cccc(S(=O)(=O)N(C)C)c2)cc1,"inconclusive: 29.1 µM [rising, partial curve, poor fit]",
C=CCCC(=O)Nc1nc(C)c(-c2csc(Nc3cc(Cl)ccc3OC)n2)s1,"inconclusive: 16.4 µM [cytotoxic, single point]",
C=CCn1c(N)c(C(=O)Nc2cccc(C)c2)c2nc3ccccc3nc21,active: 20.6 µM,
CCN(C(=O)Cc1ccc(Br)cc1)C1CCCCC1,inactive,

# Taken from above (4 entries):
Structure (SMILES),Potency,"activity change, negative = cytotoxicity"
COc1ccc(Cc2nc3ccc(C(=O)N4CCN(C)C(C)C4)cc3o2)cc1OC (configuration not stated),,inconclusive: -21.3%
CN(C)CCNCCCNc1c2ccccc2nc2cccc([N+](=O)[O-])c12,inactive,
CCCc1cc(=O)n2c([nH]c3ccccc32)c1C#N,"inconclusive: 20.6 µM [cytotoxic, single point]",
CN(C)c1ccc(S(=O)(=O)N2CCCCC2)cc1NC(=O)CCNC(=O)c1ccco1,inactive,

# Remaining list, next part

Structure (SMILES),Potency,"activity change, negative = cytotoxicity"
Cc1cccn2c(=O)nc(SCC(=O)N3CCC(Cc4ccccc4)CC3)nc12,"inconclusive: 4.61 µM [cytotoxic, full curve]",
COc1ccc(C(=O)OCC(=O)c2ccc(C3CCCCC3)cc2)cc1,inactive,
Cc1cccc(C)c1-n1c(SCC(=O)N2CC(=O)Nc3ccccc32)nc2ccccc2c1=O,active: 18.4 µM,
O=C(CCCCCn1c(=S)[nH]c2cc3c(cc2c1=O)OCO3)N1CCN(c2ccccc2)CC1,inactive,
COc1ccc([N+](=O)[O-])c(S(=O)(=O)c2ccccc2)n1,active: 23.1 µM,
CCCNC(=O)C1(C)CCN(C(=O)c2ccc3c(c2)CCO3)C1 (configuration not stated),inactive,
COc1ccc(-c2c([C@H]3[C@H]4C=CC[C@@H](C)[C@@H]4C(=O)N3Cc3ccccc3)ccc3ccccc23)cc1OC,inactive,
CC(=O)c1ccc(N(CC(=O)NC2CCCCC2)C(=O)c2csnn2)cc1,"inconclusive: 0.259 µM [rising, full curve]",
Cc1ccc(CC(=O)NC2CCSC2=O)cc1 (configuration not stated),inactive,
Cc1ccc(/C(N)=N/OC(=O)/C=C/c2ccccc2)cc1,"inconclusive: 29.1 µM [rising, partial curve, poor fit]",
CC(C)CN(CC(C)C)CC(O)CN(c1ccccc1)S(=O)(=O)c1ccccc1[N+](=O)[O-] (configuration not stated),"inconclusive: 25.9 µM [cytotoxic, single point]",
Cc1ccc([N+](=O)[O-])c(OCCn2cnc3ccccc32)c1,active: 14.6 µM,
Cc1ccccc1NS(=O)(=O)c1ccc2c3c(cccc13)C(=O)N2C,"inconclusive: 20.6 µM [cytotoxic, partial curve]",
COc1ccc(-n2nc(C(=O)Nc3cccc(C)n3)c3c4ccccc4n(C)c3c2=O)cc1,inactive,
COc1ccc(C(=O)Nc2nc(CC(=O)NCCc3cccc(OC)c3)cs2)cc1,"inconclusive: 23.1 µM [cytotoxic, single point]",
CC(=O)c1cc(CN2CCN(CCc3ccccc3)C(CCO)C2)cs1 (configuration not stated),"inconclusive: 29.1 µM [cytotoxic, partial curve, poor fit]",
O=C1C2CCCN2C(=S)N1c1cc(Cl)ccc1Cl (configuration not stated),"inconclusive: 29.1 µM [cytotoxic, single point]",
CCOC(=O)CSc1nnc(SCCN2C(=O)c3ccccc3C2=O)s1,"inconclusive: 20.6 µM [rising, single point]",
C/C(=N\NC(=O)CN1CCN(Cc2ccc(C)cc2)CC1)c1ccncc1,"inconclusive: 20.6 µM [cytotoxic, partial curve, poor fit]",
CCOc1ccc(-c2csc(-c3c(N)c(C(=O)c4ccc5c(c4)OCO5)n4ccccc34)n2)cc1,"inconclusive: 25.9 µM [cytotoxic, single point]",
C/C(Cc1ccccc1)=N\NC(=O)CNC(=O)c1ccccc1Cl,"inconclusive: 6.51 µM [rising, full curve]",
CCCCOc1ccc(C(=O)NCC(=O)N2CC(C)OC(C)C2)cc1 (configuration not stated),"inconclusive: 29.1 µM [cytotoxic, partial curve, poor fit]",
Cc1cc(OCC(=O)N(C)c2c(N)n(Cc3ccccc3)c(=O)[nH]c2=O)c(C(C)C)cc1Cl,"inconclusive: 1.84 µM [rising, full curve]",
